No constants are given. Whether binding was seen depends on the method and setting. Binding calls can cover weak binding; strength is not graded here.
Legend:
[1] = biological target: T1, PRPSAP2 (endogenous, mouse) (mouse (endogenous in NIH3T3 and C57BL/6 tissues)) (UniProt Q8R574); test: SEC; native whole-cell lysates of NIH3T3 CRISPR knockout lines (P2/AP1/AP2, P2/AP1, P1/AP2, P1, P2, AP2, AP1, AP1/AP2, P1/AP1 KO), some re-expressing PRPS2, AP1 or AP2 constructs, on Superose 6 Increase 3.2/300; fractions analysed by Western blot
T1 sequence: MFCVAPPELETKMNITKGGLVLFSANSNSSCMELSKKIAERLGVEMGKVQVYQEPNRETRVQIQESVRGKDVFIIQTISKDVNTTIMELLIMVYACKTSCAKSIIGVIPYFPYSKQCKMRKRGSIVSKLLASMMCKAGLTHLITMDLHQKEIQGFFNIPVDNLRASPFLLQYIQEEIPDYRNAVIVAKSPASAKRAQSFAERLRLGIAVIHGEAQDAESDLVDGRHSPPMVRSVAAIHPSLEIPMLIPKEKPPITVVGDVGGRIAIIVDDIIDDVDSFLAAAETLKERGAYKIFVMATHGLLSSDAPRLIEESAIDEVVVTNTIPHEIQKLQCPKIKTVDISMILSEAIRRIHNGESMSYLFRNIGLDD

By UniProt entry, the sequences of proteins in these tests, tags left out. Where a name states a change or a piece, a line headed by the entry shows the natural chain unless it says otherwise.
UniProt Q14558: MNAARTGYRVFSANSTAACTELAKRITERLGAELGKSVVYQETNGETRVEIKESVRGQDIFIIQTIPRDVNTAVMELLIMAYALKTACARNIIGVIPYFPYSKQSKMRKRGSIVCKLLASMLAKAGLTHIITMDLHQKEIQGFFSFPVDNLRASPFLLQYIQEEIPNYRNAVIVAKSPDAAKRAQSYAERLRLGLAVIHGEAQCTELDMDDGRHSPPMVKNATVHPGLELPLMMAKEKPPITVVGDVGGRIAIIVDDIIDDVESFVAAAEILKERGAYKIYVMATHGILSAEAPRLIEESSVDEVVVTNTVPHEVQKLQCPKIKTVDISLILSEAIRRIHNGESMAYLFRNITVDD

[2] = biological target: T2, PRPS2 (endogenous, mouse) (mouse (endogenous in NIH3T3 and C57BL/6 tissues)) (UniProt Q9CS42); test: as above
T2 sequence: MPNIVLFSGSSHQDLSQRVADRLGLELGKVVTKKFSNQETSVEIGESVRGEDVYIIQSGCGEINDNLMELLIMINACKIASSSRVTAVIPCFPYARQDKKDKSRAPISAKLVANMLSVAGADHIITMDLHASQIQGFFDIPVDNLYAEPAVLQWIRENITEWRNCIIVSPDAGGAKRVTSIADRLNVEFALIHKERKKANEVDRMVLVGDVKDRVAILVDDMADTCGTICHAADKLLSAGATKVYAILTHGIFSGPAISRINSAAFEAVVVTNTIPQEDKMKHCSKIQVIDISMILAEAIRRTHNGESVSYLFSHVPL

Substance	binding [1]	binding [2]
AP1 lacking the non-homologous region (NHR) (from UniProt Q14558)	binds	binds
PRPSAP1-ALFA, long isoform	–	no binding
